One test has as its target T1, Myc-TAK1 (human) (human) (UniProt O43318).
T1 sequence: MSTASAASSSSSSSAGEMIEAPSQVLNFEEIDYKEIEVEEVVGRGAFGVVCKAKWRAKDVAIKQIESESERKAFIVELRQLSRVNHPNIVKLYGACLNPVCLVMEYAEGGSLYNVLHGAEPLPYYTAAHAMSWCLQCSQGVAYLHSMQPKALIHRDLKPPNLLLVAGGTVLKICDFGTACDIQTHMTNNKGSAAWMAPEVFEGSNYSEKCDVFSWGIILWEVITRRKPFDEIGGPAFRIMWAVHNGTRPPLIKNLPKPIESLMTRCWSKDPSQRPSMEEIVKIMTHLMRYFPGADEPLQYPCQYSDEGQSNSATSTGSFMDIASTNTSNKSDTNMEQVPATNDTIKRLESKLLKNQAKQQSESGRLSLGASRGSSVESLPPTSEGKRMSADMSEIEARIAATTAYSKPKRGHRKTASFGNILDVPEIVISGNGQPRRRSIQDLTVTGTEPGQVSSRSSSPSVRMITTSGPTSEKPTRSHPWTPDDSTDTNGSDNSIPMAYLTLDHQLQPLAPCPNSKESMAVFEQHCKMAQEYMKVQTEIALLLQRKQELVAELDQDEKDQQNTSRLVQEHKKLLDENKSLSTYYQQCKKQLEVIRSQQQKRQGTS
Description: co-IP; 293 T cells transfected with tagged constructs (Lipofectamine 2000), collected 48 h after transfection; IP with anti-Fg or anti-Myc, immunoblot.

The target in test [1] is T2, Fg-USP8 (human ubiquitin-specific protease 8) (human) (UniProt P40818).
T2 sequence: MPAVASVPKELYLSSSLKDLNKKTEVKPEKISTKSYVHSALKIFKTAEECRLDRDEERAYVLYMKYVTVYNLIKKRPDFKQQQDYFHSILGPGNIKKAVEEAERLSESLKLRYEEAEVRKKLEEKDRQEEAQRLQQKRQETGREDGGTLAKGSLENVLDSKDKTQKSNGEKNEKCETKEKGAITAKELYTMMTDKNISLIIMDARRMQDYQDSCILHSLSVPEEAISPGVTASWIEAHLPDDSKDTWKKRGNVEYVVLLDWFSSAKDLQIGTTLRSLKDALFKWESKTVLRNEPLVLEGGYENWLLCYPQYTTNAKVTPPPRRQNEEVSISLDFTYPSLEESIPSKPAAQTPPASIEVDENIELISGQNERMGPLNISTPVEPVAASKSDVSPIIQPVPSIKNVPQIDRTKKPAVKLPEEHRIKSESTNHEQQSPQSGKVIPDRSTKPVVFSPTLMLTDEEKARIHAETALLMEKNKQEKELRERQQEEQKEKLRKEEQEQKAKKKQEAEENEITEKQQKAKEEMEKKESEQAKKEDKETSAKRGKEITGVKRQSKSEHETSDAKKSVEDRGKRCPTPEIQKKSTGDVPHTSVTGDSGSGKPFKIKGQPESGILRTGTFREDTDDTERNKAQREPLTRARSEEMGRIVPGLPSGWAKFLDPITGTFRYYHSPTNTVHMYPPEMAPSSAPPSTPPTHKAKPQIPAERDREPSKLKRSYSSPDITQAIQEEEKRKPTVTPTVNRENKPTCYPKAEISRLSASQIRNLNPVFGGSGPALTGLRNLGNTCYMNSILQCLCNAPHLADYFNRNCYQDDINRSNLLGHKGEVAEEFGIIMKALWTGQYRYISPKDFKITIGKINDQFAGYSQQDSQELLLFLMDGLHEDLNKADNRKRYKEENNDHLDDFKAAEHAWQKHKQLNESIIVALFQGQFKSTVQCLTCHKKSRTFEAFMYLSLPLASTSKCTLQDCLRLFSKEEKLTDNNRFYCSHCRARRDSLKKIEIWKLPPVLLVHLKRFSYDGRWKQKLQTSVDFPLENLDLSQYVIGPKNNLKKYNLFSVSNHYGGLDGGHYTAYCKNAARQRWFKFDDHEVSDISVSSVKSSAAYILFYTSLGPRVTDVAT
The test is described as above.

For test [2], the target named is T3, endogenous USP8 (human breast cancer cells) (human (endogenous in breast cancer cells)) (UniProt P40818).
T3 sequence: T2 sequence
Description: co-IP; endogenous proteins in breast cancer cells; IP of USP8, blot for TAK1.

Results are given in words; binding and its absence hold for the method and conditions named. Binding seen in cells or lysates may run through a third protein. Some binding calls cover weakened binding; strength is not graded here. For part of these data: Sequences can lack the tags named with a protein.

B1: Fg-USP8 (human ubiquitin-specific protease 8) (enzyme, UniProt P40818 1-1118)
chain: T2 sequence
Consider B1, for which the binding result with Myc-TAK1 (human) (human) was “binds”.

B2: Myc-TAK1 (human) (enzyme, UniProt O43318 1-606)
chain: T1 sequence
Take B2: the binding entry in test [1] is “binds”.

B3: endogenous TAK1 (human breast cancer cells) (enzyme, UniProt O43318 1-606)
chain: T1 sequence
Regarding B3, the binding result in test [2] is given as “binds”.

Values taken from article PMC8971431.
